The target in the test is transferrin. Briefly: SPR, proteins on the same chip. Background: In SPR one partner is held on a chip, and binding of the other changes the refractive index at the surface.

These are yes or no findings as the source states them, for the method shown.

In the case of FERDPLMMPWSFLQSRQGSC [TNF1 lead peptide], the binding result is “no binding”.

The values are drawn from patent US20120065123A1, “Synthetic Antibodies” (priority 2009, published 2012).
